# From PubChem BioAssay AID1671190 (National Center for Advancing Translational Sciences (NCATS), 2021)
# The chains behind the UniProt entries cited, without tags or fusion partners. Where a name states a change or a piece, a line headed by the entry shows the natural chain unless it says otherwise.
# UniProt P18054: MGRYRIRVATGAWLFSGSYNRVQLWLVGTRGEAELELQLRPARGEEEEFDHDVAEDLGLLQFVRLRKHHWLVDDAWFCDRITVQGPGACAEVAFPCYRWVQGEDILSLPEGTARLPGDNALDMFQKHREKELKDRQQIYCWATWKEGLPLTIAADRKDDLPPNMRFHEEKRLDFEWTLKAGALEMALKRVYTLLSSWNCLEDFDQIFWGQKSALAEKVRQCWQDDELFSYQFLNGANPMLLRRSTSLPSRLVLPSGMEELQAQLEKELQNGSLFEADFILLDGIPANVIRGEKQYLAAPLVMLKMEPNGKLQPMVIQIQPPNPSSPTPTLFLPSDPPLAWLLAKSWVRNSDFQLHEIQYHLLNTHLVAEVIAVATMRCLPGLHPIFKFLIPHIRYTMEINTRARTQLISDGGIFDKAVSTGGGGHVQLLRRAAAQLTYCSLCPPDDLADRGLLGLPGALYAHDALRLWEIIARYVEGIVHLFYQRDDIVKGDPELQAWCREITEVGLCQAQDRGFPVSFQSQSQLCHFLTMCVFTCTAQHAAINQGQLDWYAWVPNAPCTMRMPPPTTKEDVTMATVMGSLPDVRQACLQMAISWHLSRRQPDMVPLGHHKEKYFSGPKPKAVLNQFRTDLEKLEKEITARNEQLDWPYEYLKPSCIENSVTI
# Values joined by “and” are separate entries in the source; they are usually repeats but may differ in a detail not shown here. Equal entries are not always repeated. The campaign covered roughly 580,000 compounds. About 6,100 (1.1%) were called active. This list was built around the results that the source calls inconclusive (neither active nor inactive); the mix of calls is not that of the screen. Calls come from the whole dose curve; as a rule, active = well fitted inhibition curve with a large enough effect; inconclusive = small, poorly fitted or top-dose-only effect, or another doubt; inactive = no such curve, though single readings can be large or run the other way. Potencies of inconclusive entries are doubtful fits and often do not repeat.
# Target: Polyunsaturated fatty acid lipoxygenase ALOX12 (Homo sapiens) (UniProt P18054)
# Assay: Primary qHTS assay for inhibitors of human arachidonate 12S-lipoxygenase (ALOX12): Round 2
# Conditions: purified 12hLO, xylenol orange hydroperoxide absorbance; activity change, negative = inhibition: at 108 µM (top of the series) unless noted
# Outline: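 Purified human 12hLO (150 nM final) in 25 mM Hepes, 0.01% Triton X-100, pH 7.0 was preincubated 15 min at room temperature with compound. Then 40 uM arachidonic acid was added, 30 min. Hydroperoxide was read by Fe-XO absorbance ratio 573/405 nm.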
# % is set by controls: 0 for no effect and ±100 for the full control effect; potency is the fitted concentration of half-maximal effect.
SMILES,"activity change, negative = inhibition",Potency
COCc1noc([C@@H]2CN(S(=O)(=O)Cc3ccccc3F)C[C@H]2C(N)=O)n1,inactive: 57.9%,–
CCc1cc(CC)n(-c2nc3c(c(=O)[nH]c(=O)n3C)n2Cc2ccccc2)n1,inactive: 14.9%,–
Cc1cc2c(c(=O)o1)C(C1C=CCCC1)C(C#N)=C(N)O2 (stereo unspecified),inactive: -27.9%,–
CC(=O)NC12CC3CC(C1)CC(C(=O)NCCNC(=O)c1ccc(Cl)cc1)(C3)C2,inactive: 17.3%,–
O=C(CCC1CCN(S(=O)(=O)c2ccccc2)CC1)NCc1ccco1,inactive: 17.9%,–
CN(Cc1ccccc1)C(=O)C[C@@H]1CCNC[C@@H]1Cc1cc(CN2CCCCC2)on1,inactive: 4.69% [at 176 µM],–
CC12CCC(C(=O)N3CCc4ccccc43)(CC1=O)C2(C)C (stereo unspecified),inactive: 23.7%,–
O=C(O)/C=C/C(=O)Nc1ccc2nccnc2c1,inactive: -12.8%,–
Cc1ccc(-c2cc(C(=O)O)c3ccccc3n2)s1,–,"inconclusive: 31.6 µM [inhibitor, partial curve, poor fit] and inconclusive: 79.4 µM [inhibitor, partial curve, poor fit]"
Cc1cc(-n2c(C)cc(-c3csc(CC(=O)Nc4ccccc4C)n3)c2C)no1,–,"inconclusive: 7.94 µM [inhibitor, full curve]"
COc1ccc(N2CCN(C(=O)CSc3nnc(C)c(=O)[nH]3)CC2)cc1,–,"inconclusive: 6.31 µM [inhibitor, full curve, poor fit]"
CSc1nccc(-c2cccs2)n1,–,"inconclusive: 112 µM [inhibitor, partial curve, poor fit]"
Cc1ccc(C(=O)Nc2cccc(C(F)(F)F)c2)cc1NC(=O)c1nccn1C,–,inactive
COc1ccc2c(c1)CCc1cnc(-n3ncc(C(=O)NCCN4CCOCC4)c3C)nc1-2,–,"inconclusive: 100 µM [inhibitor, single point]"
COc1ccc2ccccc2c1/C=N/NC(=O)c1cccc(Br)c1,inactive: -0.281%,–
COCc1ccc2c(c1)c(OC(C)(C)C(=O)NCC[S+](C)(=O)[O-])nn2CCC(C)C,inactive: 24% [at 176 µM],–
O=C(Nc1ccc(F)cc1F)c1csc(-c2cccs2)n1,inactive: 0%,–
COc1ccc2ccccc2c1C=C(C#N)c1ccccn1,–,"inconclusive: 7.94 µM [inhibitor, full curve]"
C=CCOc1nc2c(c(=O)n(C)c(=O)n2C)n1Cc1ccc(Cl)c(Cl)c1,–,"inconclusive: 44.7 µM [inhibitor, partial curve, poor fit]"
CCN1CCC(OCCCNC(=O)C2(CCO)CC23CCOCC3)CC1 (stereo unspecified),inactive: 21.3%,–
CCOc1ccc(C2(c3cccc(Br)c3)CCCCC2)cc1,–,"inconclusive: 100 µM [inhibitor, single point]"
CC1CCC2(CC1)NC(=O)N(Cc1cccc(C(F)(F)F)c1)C2=O (stereo unspecified),inactive: 3.67%,–
Cc1onc(-c2ccccc2Cl)c1C(=O)NCc1ccco1,–,"inconclusive: 56.2 µM [inhibitor, partial curve, poor fit]"
Cc1ccc(CNC(=O)C2CCN(S(=O)(=O)c3ccc4nc5c(c(C(=O)O)c4c3)CC(C)CC5)CC2)cc1 (stereo unspecified),–,"inconclusive: 50.1 µM [inhibitor, partial curve, poor fit]"

SMILES,"activity change, negative = inhibition",Potency
O=C(CN1CCCCC1)Nc1ccc(N2CCCCCC2)cc1,–,"inconclusive: 50.1 µM [inhibitor, partial curve]"
COc1ccc(C(=O)Nc2ccncc2)cc1OC,inactive: 4.23%,–
O=C(O)CN1C(=O)C(=O)N(Cc2c(F)cccc2Cl)C1=O,–,"inconclusive: 44.7 µM [inhibitor, single point]"
COCCN(Cc1ccsc1)Cc1cn[nH]c1-c1ccc(F)cc1,inactive: 48.8%,–
Cc1noc([C@@H]2CN(Cc3ccccc3C(F)(F)F)C[C@H]2CO)n1,inactive: 4.6%,–
CCCN(CC1CCOC1)S(=O)(=O)c1ccc(Br)cc1 (stereo unspecified),inactive: 27.5%,–
CNC(=O)c1ccc2cc(C3(O)CCn4cncc43)ccc2c1 (stereo unspecified),–,"inconclusive: 13.7 µM [inhibitor, partial curve, poor fit]"
CNC(=S)N1C2CCCC1CC(NC(=O)c1ccc(C)cc1)C2 (stereo unspecified),–,"inconclusive: 79.4 µM [inhibitor, single point]"
CC(C)CC(=O)N1CCC(N2CCCCCC2)CC1,–,"inconclusive: 1.12 µM [inhibitor, full curve]"
C/C(=N\NC(=S)NCc1ccccc1)c1cccs1,–,active: 39.8 µM
O=C(NC1CCCC1)c1cccc2c1C(=O)c1ccc(/C=C/c3ccccc3)cc1S2(=O)=O,inactive: -12%,–
OC(CNCCc1ccc(C(F)(F)F)cc1)COc1cccc2ccccc12 (stereo unspecified),–,"inconclusive: 63.1 µM [inhibitor, partial curve, poor fit]"
C[C@@H](N)C(=O)O,–,"inconclusive: 31.6 µM [inhibitor, partial curve, poor fit]"
Cn1cccc1Cc1nnc(SCC(=O)Nc2ccc(F)cc2F)n1C,–,"inconclusive: 44.7 µM [inhibitor, partial curve, poor fit]"
COc1ccc(C2C(C#N)=C(N)N(c3ccccc3Cl)C3=C2C(=O)CCC3)cc1O (stereo unspecified),–,"inconclusive: 50.1 µM [inhibitor, partial curve, poor fit]"
CN1CC2(C1)C(=O)N(Cc1cccc(Cl)c1)C(=O)[C@@H]1C[C@@H](O)CN12,inconclusive: -36.6% [inhibitor] [at 176 µM],–
COc1ccc2c(c1)CC/C(=C\Nc1ccc3c(c1)OCO3)C2=O,–,"inconclusive: 3.16 µM [inhibitor, full curve, poor fit]"
CCCN(CC(=O)Nc1cc(Cl)ccc1Cl)C(=O)/C=C/c1ccco1,–,"inconclusive: 28.2 µM [inhibitor, partial curve]"
COc1ccccc1NS(=O)(=O)c1ccc2c(c1)NC(=O)C(C)S2 (stereo unspecified),inactive: -4.2%,–
O=C(CC1CCCC1)N[C@@H](Cc1cccnc1)C(=O)N1CCC[C@H]1C(=O)NC1CCCC1,–,"inconclusive: 14.1 µM [inhibitor, full curve]"
O=c1c(O)c(Br)ccc2c(Br)c(O)c(O)c(O)c12,–,"inconclusive: 44.7 µM [inhibitor, partial curve, poor fit]"
C#CCNC(=O)C1=C[C@@H](c2ccc3c(c2)OCO3)[C@H](CCCO)[C@@H](OCC)O1,–,"inconclusive: 56.2 µM [inhibitor, partial curve, poor fit]"
COC(=O)[C@@]12C[C@@H](CC(=O)N3CCCC3)C(=O)N(Cc3ccc4c(c3)OCO4)C1=CCC(C)(C)C2,inactive: -2.7%,–
O=C(NNc1ccccc1[N+](=O)[O-])NC1CCCCC1,inactive: -7.85%,–

# 3 compounds drawn at random from the list so far:
SMILES,"activity change, negative = inhibition",Potency
COc1ccc2c(c1)CC/C(=C\Nc1ccc3c(c1)OCO3)C2=O,–,"inconclusive: 3.16 µM [inhibitor, full curve, poor fit]"
CC1CCC2(CC1)NC(=O)N(Cc1cccc(C(F)(F)F)c1)C2=O (stereo unspecified),inactive: 3.67%,–
Cc1cc2c(c(=O)o1)C(C1C=CCCC1)C(C#N)=C(N)O2 (stereo unspecified),inactive: -27.9%,–

# Following part.

SMILES,"activity change, negative = inhibition",Potency
CCc1ccc(C(=O)Nc2cc(S(=O)(=O)N3CCOCC3)ccc2N2CCOCC2)cc1,–,"inconclusive: 28.2 µM [inhibitor, single point]"
CCCn1c(SCCC(=O)O)nc2c1c(=O)[nH]c(=O)n2C,–,"inconclusive: 35.5 µM [inhibitor, partial curve]"
COc1cccc(N2CCN(C3=NS(=O)(=O)C(c4ccc(C)cc4)=C3C)CC2)c1,–,"inconclusive: 112 µM [inhibitor, partial curve, poor fit]"
CC(C)(C)CC(=O)N1CC[C@@H](CC(=O)O)[C@@H](CCN2CCN(c3ccccn3)CC2)C1,inactive: 7.37% [at 176 µM],–
COc1ccc(NC(=S)NNc2ccc([N+](=O)[O-])cc2S(=O)(=O)Nc2ccc(C)cc2C)cc1,–,active: 22.4 µM
O=C(NCc1ccc(F)cc1)c1nc(Cc2c[nH]c3ccccc23)no1,–,"inconclusive: 39.8 µM [inhibitor, single point]"
N#Cc1ccccc1COc1ccc(C=O)cc1,–,"inconclusive: 39.8 µM [inhibitor, partial curve, poor fit]"
CN(C)c1nc2c(c(=O)[nH]1)CCN(Cc1ccc(Cl)cc1F)CC2,–,"inconclusive: 28.2 µM [inhibitor, full curve]"
O=C(O)c1ccccc1N/N=C\c1ccnc2ccccc12,–,"inconclusive: 6.31 µM [inhibitor, full curve, poor fit]"
CC(C)(C)c1ccc(-c2n[nH]c(=S)n2C2CCCC2)cc1,–,"inconclusive: 8.91 µM [inhibitor, full curve, poor fit]"
CCCCN(CCCNC(=O)c1ccc(CS(=O)(=O)c2c(Cl)cccc2Cl)o1)Cc1ccccc1,inactive: 11%,–
COc1ccccc1N1CCN(C(=O)CCC(=O)N2CCN(c3ccccc3OC)CC2)CC1,inactive: 14.7%,–
CCOc1ccc(/C=C2/SC(=S)N(n3c(C)ccc3C)C2=O)cc1,inactive: -15.4%,–
CC1=C(C)C(OCCBr)N(c2cc(O)c(Cl)cc2F)C1=O (stereo unspecified),–,"inconclusive: 112 µM [inhibitor, single point]"
N#CC1=C(N)C(C#N)(C#N)C(c2cccnc2)C2CN(C(=O)OCc3ccccc3)CC=C12 (stereo unspecified),inactive: 7.28%,–
O=C1CN(CC(=O)Nc2ccc(SC(F)F)cc2)CCN1,inactive: 1.66%,–
C=C(C)Cn1c(SCCc2ccccc2)nc2c1c(=O)n(C)c(=O)n2C,inactive: 1.64%,–
Cc1cccc2sc(NC(=O)CCNS(=O)(=O)c3cccs3)nc12,–,"inconclusive: 89.1 µM [inhibitor, partial curve, poor fit]"
Cc1ccc(-c2cc(C(=O)NCC3(N(C)C)CCCCC3)c3ccccc3n2)o1,inactive: -29.9%,–
O=C(CN1C(=O)c2ccccc2S1(=O)=O)Nc1ccc(S(=O)(=O)Nc2ncccn2)cc1,–,"inconclusive: 28.2 µM [inhibitor, partial curve, poor fit]"
COc1cc2nc3n(c(=O)c2cc1OC)-c1ncccc1C(=O)NC3Cc1ccccc1 (stereo unspecified),–,"inconclusive: 70.8 µM [inhibitor, partial curve, poor fit]"
CCOC(=O)c1c(-c2ccccc2)oc2ccc(O)c(CN3CCOCC3)c12,inactive: -15.5%,–
CC(=O)Nc1ccc(S(=O)(=O)N2CCN(Cc3cccc([N+](=O)[O-])c3)CC2)cc1,–,"inconclusive: 31.6 µM [inhibitor, full curve, poor fit]"
